Data: the supplement of paper PMC8007513
The list shows a part of the results. Many values rest on one well or one pass, so single values are uncertain.

The compounds below were run on Saccharomyces cerevisiae BY4743 (assay: growth (OD600) with compound + IPBC relative to untreated control; higher = less growth inhibition). Conditions: compound concentration: 133 uM; IPBC concentration: 0.5 ug/ml; 20 h.
Description: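 NMCCC compounds (133 uM) combined with IPBC (0.5 ug/ml) against Saccharomyces cerevisiae BY4743 in YPD, 96-well plates. Growth was read as OD600 at 20 h and expressed as % of the untreated control. Single pass.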

SMILES	growth [%]
COCc1nc2ccccc2n1CC(O)COc1ccccc1 (centres undefined) + CCCCNC(=O)OCC#CI [3-iodo-2-propynyl butylcarbamate (IPBC)]	106
CCOC(=O)C1CCN(CC1)C(=O)N\C2=C\N(C)C(=O)C3=CC=CC=C23 + CCCCNC(=O)OCC#CI [3-iodo-2-propynyl butylcarbamate (IPBC)]	101
CCn1c(-c2ccc(Br)cc2)cnc1SCC(=O)Nc1ccc(C(N)=O)cc1 + CCCCNC(=O)OCC#CI [3-iodo-2-propynyl butylcarbamate (IPBC)]	76.4
CCOC(=O)c1c(C)[nH]c(C)c1S(=O)(=O)NCC(=O)N1c2ccccc2CC1C (centres undefined) + CCCCNC(=O)OCC#CI [3-iodo-2-propynyl butylcarbamate (IPBC)]	111
O=C(OCC(=O)N1CCNC1=O)c1cnn(Cc2ccccc2)c1 + CCCCNC(=O)OCC#CI [3-iodo-2-propynyl butylcarbamate (IPBC)]	95.1
CC1=CC=CC=C1C(=O)N(C\2C[S](=O)(=O)\C=C2)C3=CC=CC=C3 (centres undefined) + CCCCNC(=O)OCC#CI [3-iodo-2-propynyl butylcarbamate (IPBC)]	104
CC(=O)Nc1nc(COC(=O)CNC(N)=O)cs1 + CCCCNC(=O)OCC#CI [3-iodo-2-propynyl butylcarbamate (IPBC)]	89.6
C=C1N(CCc2ccccn2)C(=O)OC12CCCCC2 + CCCCNC(=O)OCC#CI [3-iodo-2-propynyl butylcarbamate (IPBC)]	81.9
Cn1nc(C(C)(C)C)cc1NC(=O)COc1ccc(Oc2ccccn2)cc1 + CCCCNC(=O)OCC#CI [3-iodo-2-propynyl butylcarbamate (IPBC)]	109
Cc1sc(NC(=O)c2cccc(NC(=O)C3CCCO3)c2)c(C#N)c1C (centres undefined) + CCCCNC(=O)OCC#CI [3-iodo-2-propynyl butylcarbamate (IPBC)]	91.3
CCn1nnnc1SCc1cn2cc(Cl)ccc2n1 + CCCCNC(=O)OCC#CI [3-iodo-2-propynyl butylcarbamate (IPBC)]	112
CCOC(=O)c1[nH]nc(C(=O)c2ccccc2)c1-c1ccccc1 + CCCCNC(=O)OCC#CI [3-iodo-2-propynyl butylcarbamate (IPBC)]	93
Cn1c(CN2CCOCC2)c(C#N)c2ccccc21 + CCCCNC(=O)OCC#CI [3-iodo-2-propynyl butylcarbamate (IPBC)]	88.8
CC(C)CCNC(=O)CN1C(=O)CSc2ncccc21 + CCCCNC(=O)OCC#CI [3-iodo-2-propynyl butylcarbamate (IPBC)]	104
CCC(C)NC(=O)c1cccc(-n2cnc3cccnc32)c1 (centres undefined) + CCCCNC(=O)OCC#CI [3-iodo-2-propynyl butylcarbamate (IPBC)]	101
CC(C)CCNC(=O)c1cnn2c3c(cnc12)CCCC3 + CCCCNC(=O)OCC#CI [3-iodo-2-propynyl butylcarbamate (IPBC)]	104
CCC(C)Nc1nc2c(c(=O)[nH]c(=O)n2C)n1CC(O)COc1ccc(C)cc1 (centres undefined) + CCCCNC(=O)OCC#CI [3-iodo-2-propynyl butylcarbamate (IPBC)]	75.8
COc1cc(Br)c(CCNC(=O)c2nnc(O)c3ccccc23)cc1OC + CCCCNC(=O)OCC#CI [3-iodo-2-propynyl butylcarbamate (IPBC)]	102
O=C(CSCc1ccccc1)Nc1nnc(Cc2ccc(Cl)cc2)s1 + CCCCNC(=O)OCC#CI [3-iodo-2-propynyl butylcarbamate (IPBC)]	89.1
NC(=O)c1cc(Cl)ccc1OCc1nc(-c2ccsc2)no1 + CCCCNC(=O)OCC#CI [3-iodo-2-propynyl butylcarbamate (IPBC)]	109

SMILES	growth [%]
Cc1nc(C)c(C(=O)OCC(=O)Nc2sc3c(c2C(N)=O)CCCC3)s1 + CCCCNC(=O)OCC#CI [3-iodo-2-propynyl butylcarbamate (IPBC)]	100
COCC(=O)Nc1nc2nc(-c3ccccc3)cc(O)n2n1 + CCCCNC(=O)OCC#CI [3-iodo-2-propynyl butylcarbamate (IPBC)]	87.2
CN(CC(=O)NC1=CC=CC=C1Cl)C(=O)CN2\N=C/C(=O)C3=CC=CC=C23 + CCCCNC(=O)OCC#CI [3-iodo-2-propynyl butylcarbamate (IPBC)]	92.6
Cc1nc(C2(NC(=O)C(C)Oc3ccc(C#N)cc3)CCCCC2)no1 (centres undefined) + CCCCNC(=O)OCC#CI [3-iodo-2-propynyl butylcarbamate (IPBC)]	102
CN(CC(=O)Nc1cccc(Cl)c1)S(=O)(=O)c1ccc(-c2ccc(O)nn2)s1 + CCCCNC(=O)OCC#CI [3-iodo-2-propynyl butylcarbamate (IPBC)]	96
CCOC1=CC=C(NC(=O)CS\C2=C(/C#N)C(CC(=O)N2)C3=CC=CS3)C=C1 (centres undefined) + CCCCNC(=O)OCC#CI [3-iodo-2-propynyl butylcarbamate (IPBC)]	84.7
Nc1cc(C2CC2)nn1Cc1ccccc1 + CCCCNC(=O)OCC#CI [3-iodo-2-propynyl butylcarbamate (IPBC)]	111
CC(=O)Nc1ccc(C(=O)CSc2nc3cc(C)ccc3[nH]2)c(F)c1 + CCCCNC(=O)OCC#CI [3-iodo-2-propynyl butylcarbamate (IPBC)]	104
COC(=O)c1ccc(N2CCCC2)c(NC(=O)N(C)Cc2ccc(OC)cc2OC)c1 + CCCCNC(=O)OCC#CI [3-iodo-2-propynyl butylcarbamate (IPBC)]	100
CCCn1c(=O)[nH]c(=O)c2c3c(cnc21)C(=O)CCC3 + CCCCNC(=O)OCC#CI [3-iodo-2-propynyl butylcarbamate (IPBC)]	86.9
CCCN(CCC)C(=O)c1oc2ccccc2c1NC(=O)c1ccco1 + CCCCNC(=O)OCC#CI [3-iodo-2-propynyl butylcarbamate (IPBC)]	94
CCN\1C(=O)NC(=O)\C(=C1N)SC2=NC3=CC=CC=C3S2 + CCCCNC(=O)OCC#CI [3-iodo-2-propynyl butylcarbamate (IPBC)]	96.7
CCN(CC)CCNC(=O)c1nn(C)c2c1CSc1ccccc1-2 + CCCCNC(=O)OCC#CI [3-iodo-2-propynyl butylcarbamate (IPBC)]	106
O=C(CNC(=O)c1ccc2ncsc2c1)OCc1ccccc1 + CCCCNC(=O)OCC#CI [3-iodo-2-propynyl butylcarbamate (IPBC)]	81.7
CCOC(=O)N1CCN(C(=O)Cn2nc(C)c3ccccc32)CC1 + CCCCNC(=O)OCC#CI [3-iodo-2-propynyl butylcarbamate (IPBC)]	94.7
COC(=O)c1c(C)[nH]c(C(=O)CN2CCCC2c2cccn2C)c1C (centres undefined) + CCCCNC(=O)OCC#CI [3-iodo-2-propynyl butylcarbamate (IPBC)]	107
CN(C1CCCCC1)C(=O)\C2=C\C(=N/[S](=O)(=O)N2C)C3=CC=C(F)C=C3 + CCCCNC(=O)OCC#CI [3-iodo-2-propynyl butylcarbamate (IPBC)]	98.4
COc1ccc(S(=O)(=O)Nc2c(C)cc(C)cc2C)cc1N(C)S(C)(=O)=O + CCCCNC(=O)OCC#CI [3-iodo-2-propynyl butylcarbamate (IPBC)]	92.6
COc1ccc(-n2cc(C#N)c3cccnc32)cc1 + CCCCNC(=O)OCC#CI [3-iodo-2-propynyl butylcarbamate (IPBC)]	73

Part of the list above, with bars between the fields:
SMILES | growth [%]
O=C(CNC(=O)c1ccc2ncsc2c1)OCc1ccccc1 + CCCCNC(=O)OCC#CI [3-iodo-2-propynyl butylcarbamate (IPBC)] | 81.7
CCOC(=O)N1CCN(C(=O)Cn2nc(C)c3ccccc32)CC1 + CCCCNC(=O)OCC#CI [3-iodo-2-propynyl butylcarbamate (IPBC)] | 94.7
